At least one structure is not confirmed: it was looked up by name or label, or the drawing left a doubt.
System: Retzius cells (leech neurons)
Test: Two-dimensional fluorescence spectra of excitation and emission in leech neurons at defined membrane voltages (voltage clamp)
Format: cell-based, Hirudo medicinalis
Details: scaled to ΔVM=100 mV

With CCCCCN(CCCCC)c1ccc(/C=C/C=C/c2cc[n+](CCCCS(=O)(=O)[O-])cc2)cc1 [RH-421, reference compound] the “voltage sensitivity (relative change of fluorescence intensity per change of membrane voltage), range within the limited spectral window” value was “±100”.

CCCCN(CCCC)c1ccc2cc(C=Cc3cc[n+](CCCCS(=O)(=O)[O-])cc3)ccc2c1 [di-4-ANEPBS, reference compound] was tested, and the “voltage sensitivity (relative change of fluorescence intensity per change of membrane voltage), range within the limited spectral window” value was “±15”.

From patent US20080122428A1, “Optimized Determination of Voltage Changes Using a Voltage-Sensitive Dye” (Max-Planck-Gesellschaft zur Forderungder Wissenschaften e. …, priority 2003, published 2008)
